{"source": "patent US20200299251A1", "about": "“FURAN SKELETON-CONTAINING IMINOGUANIDINE DERIVATIVE AS WELL AS PREPARATION AND APPLICATION THEREOF” (SUN YAT-SEN UNIVERSITY, priority 2017, published 2020)", "assay": "Release-absorption cycle experiment on carbon dioxide (conversion rate by absorbance at 368 nm)", "data": [{"smiles": "N=C(N)N/N=C/c1ccc(/C=N/NC(=N)N)o1", "note": "[FuBIG]", "values": [{"measurement": "conversion rate", "setting": "after absorption-release cycle for ten times", "value": 92.49, "unit": "%"}, {"measurement": "conversion rate", "setting": "first CO2 absorption, aqueous solution 0.4248M, stirred 1 h", "value": 99.36, "unit": "%"}]}]}
